Patent US6043024A, “Use of one-dimensional nuclear magnetic resonance to identify ligands to target biomolecules” (Abbott Laboratories, priority 1997, dated 2000)
Some of these results come from one statement about several compounds together.

By UniProt entry, the sequences of proteins in these tests, tags left out.
UniProt P62942, whole entry: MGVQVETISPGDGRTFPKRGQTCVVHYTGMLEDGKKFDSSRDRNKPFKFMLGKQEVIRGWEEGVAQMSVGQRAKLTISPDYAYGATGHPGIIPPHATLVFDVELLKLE

Key:
FKBP [1] = target: T1, FKBP (Homo sapiens, UniProt P62942); experiment: Screening for binding using diffusion-filtered one-dimensional proton NMR spectroscopy; settings: mixture of compounds 2-9, each 100 μM; FKBP 50 μM; gradients 3 and 48 Gauss/cm, diffusion delay 300 ms, pH 6.5, 300K
Protocol: (§1) For all experiments, low and high gradient strengths correspond to 3 and 48 Gauss/cm, respectively. The high gradient strength was sufficient to eliminate the residual HDO signal in the sample. A diffusion delay time of 300 ms was used, the concentration of all chemical compounds was 100 μM, the concentration of FKBP was 50 μM, and the buffer was 50 mM PO4, 100 mM NaCl, pH 6.5 (95% D2 O).
as §1, with “48 Gauss/cm.” for “48 Gauss/cm,”, “[…]” for “50 mM”
(§2) Recombinant human FK binding protein (FKBP) was prepared as described in Logan et al., J. Mol. Biol., 236: 637-648 (1994).
The pulse sequence employed for exploiting the changes in diffusion rates of potential ligands in the presence of the target molecule that described by S. J. Gibbs and C. S. Johnson, Jr. J. Main. Reson. 93:395-402 (1991) and A. S. Altieri, et al. J. Am. Chem. Soc. 117: 7566-7567 (1995).
The present invention takes advantage of the fact that small molecules diffuse more rapidly than larger molecules in solution. This is well-known in the art. The present invention takes advantage of the fact that a small molecule, which normally diffuses rapidly when free in solution, will diffuse more slowly when bound to a larger target molecule. Thus, the diffusion rates of the small molecule will change (decrease) when bound to a target molecule.
First, diffusion filtered spectra are obtained at weak and strong gradient strengths on a sample of compound 1 in the presence of FKBP (FIGS. 4A and 4B, respectively). This spectrum contains residual ligand resonances of compound 1. This spectrum is then subtracted from a reference spectrum of compound 1 alone (after a weak gradient, FIG. 4D), to yield a spectrum containing the resonances of the ligand which binds to the protein (FIG. 4E). As with the T2 -filtered experiment, the positive peaks in FIG. 4E correspond to the chemical shifts of the ligand in the absence of protein, while the negative peaks correspond to the chemical shifts of the compound when bound to FKBP. This information can be used to identify the active compound.
The same experiments can be performed on a mixture of compounds. […] FIGS. 5A and 5B show spectra of the mixture of compounds on the presence of FKBP after weak and strong gradient strengths, respectively. The difference between these spectra produces a spectrum (FIG. 5C). […] The chemical shift information contained in FIG. 5E is used not only to detect the presence of a ligand which binds to the protein, but can also be used to identify which compound in the mixture of compounds is binding, provided that such chemical shift information about the free ligands is known a priori.
(§3) All NMR spectra were recorded at 300K on a Bruker AMX500 NMR spectrometer. All spectra were recorded with 256 scans and a proton sweep width of 8333.3 Hz and a proton 90 degree pulse length of 7 μs. For the T2 -filtered experiments, the spin-lock time was 200 ms with a spin-echo delay of 1 ms. For the gradient-filtered spectra, low and high gradient strengths correspond to 3 and 48 Gauss/cm, respectively, and a diffusion delay time of 300 ms was used. In all experiments, the concentration of each ligand was 100 μM, the concentration of FKBP was 50 μM, and the buffer was 50 mM PO4, 100 mM NaCl, pH 6.5 (95% D20). The NMR data were processed and analyzed on Silicon Graphics computers.

FKBP [2] = target: T1, FKBP; experiment: Screening for binding using T2-filtered one-dimensional proton NMR spectroscopy; settings: mixture of compounds 2-9, each 100 μM; FKBP 50 μM; spin-lock 200 ms, pH 6.5, 300K
Protocol: For all experiments, the T2 -filter spin-lock time was 200 ms with a spin-echo delay of 1 ms, the concentration of compound 1 was 100 μM, the concentration of FKBP was 50 μM, and the buffer was 50 mM PO4, 100 mM NaCl, pH 6.5 (95% D2 O).
For all experiments, the T2 -filter spin-lock time was 200 ms with a spin-echo delay of 1 ms, the concentration of all chemical compounds was 100 μM, the concentration of FKBP was 50 μM, and the buffer was 50 mM PO4, 100 mM NaCl, pH 6.5 (95% D2 O).
as §2
The pulse sequence employed for exploiting the changes in transverse (T2) relaxation rates of potential ligands in the presence of the target molecule is the Carr-Purcell-Meiboom-Gill (CPMG) sequence as described in S. Meiboom and D. Gill, Rev. Sci. Instrum. 29:688 (1958).
The present invention takes advantage of the fact that large molecules or complexes of molecules which tumble slowly in solution will have shorter transverse (T2) relaxation times than a small molecule which tumbles rapidly in solution. This is well-known in the art. The present invention takes advantage of the fact that a small molecule, which normally tumbles rapidly when free in solution, will tumble more slowly when bound to a larger target molecule. Thus, the transverse (T2) relaxation rates of the small molecule will change (decrease) when bound to a target molecule.
In FIG. 1A, a CPMG sequence with a spin-lock time of 200 ms is applied to the compound in the absence of FKBP. Since the transverse relaxation rates of small molecules free in solution are generally on the order of seconds, negligible relaxation occurs during the spin-lock time, and the signals of the free ligand are observed. […] These differences can be detected either by direct inspection, or by a spectral differencing method in which the spectrum of […] (after the spin-lock, FIG. 1C) is subtracted from the spectrum of the compound in the presence of FKBP (also after the spin-lock, FIG. 1B), resulting in the spectrum shown in FIG. 1D. This spectrum then contains only the residual ligand peaks, which, if desired, can be even further reduced in intensity by the application of longer spin-lock times. This spectrum (FIG. 1D) is then subtracted from the spectrum of the test compound alone (FIG. 1A), resulting in the spectrum shown in FIG. 1E. […] This information can be used to identify the active compound.
The same experiments can be performed on a mixture of compounds. […] The spectrum in FIG. 2D, obtained by subtracting FIG. 2C from FIG. 2B, contains the resonances of the ligands in the presence of the protein. […] The chemical shift information contained in FIG. 2E is used not only to detect the presence of a ligand which binds to the protein, but can also be used to identify which compound in the mixture of compounds is binding, provided that such chemical shift information about the free ligands is known a priori.
as §3

FKBP [3] = target: T1, FKBP; settings: compounds 2-9, in words; cited from earlier work

SMILES	binding to FKBP from difference spectrum (FIG. 6E), diffusion-filtered, mixture of compounds 2-9 (FKBP [1])	binding to FKBP from difference spectrum (FIG. 3E), T2-filtered, mixture of compounds 2-9 (FKBP [2])	known binding to FKBP (FKBP [3])
O=C1CCc2ccccc2O1 [Compound 2]	no ligands are binding to FKBP	no ligands are binding to FKBP	known not to bind to FKBP
COc1cccc(O)c1 [Compound 3]	no ligands are binding to FKBP	no ligands are binding to FKBP	known not to bind to FKBP
OC(c1ccccc1)c1ccccc1 [Compound 4]	no ligands are binding to FKBP	no ligands are binding to FKBP	known not to bind to FKBP
Oc1cccc(O)c1 [Compound 5]	no ligands are binding to FKBP	no ligands are binding to FKBP	known not to bind to FKBP
Nc1cc(-c2ccco2)[nH]n1 [Compound 6]	no ligands are binding to FKBP	no ligands are binding to FKBP	known not to bind to FKBP
COc1ccc(-c2ccc(C(=O)O)cc2)cc1 [Compound 7]	no ligands are binding to FKBP	no ligands are binding to FKBP	known not to bind to FKBP
O=C(O)c1ccc(-c2cccs2)s1 [Compound 8]	no ligands are binding to FKBP	no ligands are binding to FKBP	known not to bind to FKBP
O=c1oc2ccccc2c(O)c1-c1ccccc1 [Compound 9]	no ligands are binding to FKBP	no ligands are binding to FKBP	known not to bind to FKBP
